Assay [1] has as its target HSF1 (UniProt Q00613). In words: DAPPL (digital affinity profiling via proximity ligation, sequencing). The following applies: 10 mM Tris-HCl pH 7.5, 50 mM NaCl, 1 mM DTT, 4% glycerol, room temperature, 30 min; GST-TFs on glutathione beads, 16-mer random dsDNA library, 0.1% …; high values mean tight binding; double strand, one strand shown; scale: fold enrichment (6-mer frequency, TF over GST control).

By UniProt entry, the sequences of proteins in these tests, tags left out. Where a name states a change or a piece, a line headed by the entry shows the natural chain unless it says otherwise.
UniProt Q00613: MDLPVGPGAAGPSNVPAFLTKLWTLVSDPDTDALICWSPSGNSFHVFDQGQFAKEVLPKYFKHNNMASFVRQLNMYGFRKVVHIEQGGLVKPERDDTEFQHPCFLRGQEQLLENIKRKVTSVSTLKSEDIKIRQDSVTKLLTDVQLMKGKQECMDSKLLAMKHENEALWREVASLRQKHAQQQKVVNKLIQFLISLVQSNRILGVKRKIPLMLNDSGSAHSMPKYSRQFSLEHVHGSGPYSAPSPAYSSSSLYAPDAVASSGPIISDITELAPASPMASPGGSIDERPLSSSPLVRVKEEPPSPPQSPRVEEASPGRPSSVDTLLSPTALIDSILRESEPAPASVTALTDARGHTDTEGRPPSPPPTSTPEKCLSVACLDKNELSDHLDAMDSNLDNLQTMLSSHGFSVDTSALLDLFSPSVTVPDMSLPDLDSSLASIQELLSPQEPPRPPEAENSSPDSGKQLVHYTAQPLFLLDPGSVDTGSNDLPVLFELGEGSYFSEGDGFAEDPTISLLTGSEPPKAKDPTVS

Assay [2] addresses T1, ELF2 (UniProt Q15723).
T1 sequence: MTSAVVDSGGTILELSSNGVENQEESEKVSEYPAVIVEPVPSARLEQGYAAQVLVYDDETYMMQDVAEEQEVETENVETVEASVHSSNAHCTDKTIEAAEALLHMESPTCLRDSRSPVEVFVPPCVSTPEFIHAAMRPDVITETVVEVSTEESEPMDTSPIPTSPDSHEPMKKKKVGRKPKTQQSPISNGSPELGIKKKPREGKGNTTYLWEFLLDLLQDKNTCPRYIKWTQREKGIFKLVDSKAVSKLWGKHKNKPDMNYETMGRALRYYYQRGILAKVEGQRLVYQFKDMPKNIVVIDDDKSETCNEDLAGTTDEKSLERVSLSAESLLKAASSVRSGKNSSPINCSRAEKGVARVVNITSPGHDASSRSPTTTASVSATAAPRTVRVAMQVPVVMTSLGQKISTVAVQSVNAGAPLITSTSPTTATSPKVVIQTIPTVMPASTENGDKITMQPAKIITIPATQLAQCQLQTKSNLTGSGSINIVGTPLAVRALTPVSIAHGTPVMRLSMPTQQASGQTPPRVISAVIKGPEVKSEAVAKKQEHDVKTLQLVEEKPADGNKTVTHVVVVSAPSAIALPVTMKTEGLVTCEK
The assay is described as above. As to conditions: 10 mM Tris-HCl pH 7.5, 50 mM NaCl, 1 mM DTT, 4% glycerol, room temperature, 30 min; GST-TFs on glutathione beads, 16-mer random dsDNA library, 0.1% …; high values mean tight binding; double strand, one strand shown; scale: fold enrichment (6-mer frequency, TF over GST control).

The list shows a part of the results, in another mix than the full data. For some of these results: At the low end of the ranking the order means little. The list shows a part of the results. For some of these results: The source does not settle which construct or isoform was used.

Take CTCTAT: the binding signal in assay [1] is 1.11; in assay [2] it was 1.13.
As for GTGTCT, the figures for the binding signal in assay [1] and in assay [2] were 0.834 and 0.955, respectively.
Regarding ACATCG, the values for the binding signal in assay [1] and in assay [2] were 1.01 and 0.997, respectively.
As for TTGTAG, the binding signal in assay [1] was 1.23; in assay [2], 1.06.
For CCACCT the same measures were 0.931 and 0.991.
For the sequence TTTACC, the values for the binding signal in assay [1] and in assay [2] were 1.25 and 1.23, respectively.
For GCCCCA the same measures were 0.863 and 0.956.
For the sequence ATCCTC, the binding signal came out at 1.67 in assay [1] and 1.5 in assay [2].
On to CTCCAC, for which the binding signal amounted to 1.26 in assay [1] and 1.31 in assay [2].
On the same counts, the results for GACGAC are 0.877 and 0.937.
For GCCCTA, the binding signal is 1.13 in assay [1] and 1.16 in assay [2].
Consider AATATT, for which the results for the binding signal in assay [1] and in assay [2] were 1.93 and 1.41, respectively.
On the same counts, the results for ATAGGT are 0.9 and 0.984.
On to TGCACA, for which the binding signal in assay [1] was found to be 0.883; in assay [2], 1.07.
For GGGCAT the same measures were 0.77 and 0.876.
For CGTTCC the same measures were 1.44 and 1.52.
On the same counts, the results for ACCTAT are 1.05 and 1.11.
In the case of TATAAT, the binding signal worked out at 1.82 in assay [1] and 1.18 in assay [2].
On to GTTGTT, for which the binding signal in assay [1] turned out to be 0.953; in assay [2], 1.11.
For the sequence CTACCG, the binding signal in assay [1] was 1.16; in assay [2], 1.88.
As to CATAGT, the binding signal in assay [1] worked out at 0.935; in assay [2] it was 0.967.
For TTATCT, the binding signal in assay [1] is 2.24; in assay [2] it was 1.26.
For CTATCG the same measures were 1.17 and 1.01.
For TGCCTT the same measures were 1.27 and 1.35.
Consider TTGGCG, for which the binding signal came to 0.875 in assay [1] and 0.951 in assay [2].
Consider CCGCTG, for which the results for the binding signal in assay [1] and in assay [2] were 0.76 and 1.01, respectively.
For the sequence GCTATC, the binding signal in assay [1] worked out at 0.891; in assay [2], 1.04.
Take ACATGT: the figures for the binding signal in assay [1] and in assay [2] were 0.912 and 1.11, respectively.
For AGCACA, the binding signal in assay [1] is 0.995; in assay [2], 1.05.
On to CGCTAT, for which the binding signal in assay [1] stood at 0.908; in assay [2], 1.07.
For GAACTT the same measures were 2.03 and 1.87.
For CCCTGC the same measures were 0.943 and 1.11.
With TCAACG, the values for the binding signal in assay [1] and in assay [2] were 0.975 and 1.02, respectively.
Turning to TAACCA, the binding signal in assay [1] was determined as 1.16; in assay [2] it was 1.09.
For the sequence CCCGAA, the binding signal in assay [1] turned out to be 2.56; in assay [2], 1.28.
On the same counts, the results for TCACCA are 1.01 and 1.1.
For GGTGGT the same measures were 0.795 and 0.962.
Consider GATAAA, for which the binding signal in assay [1] is 1.21; in assay [2], 0.969.
TTGCCC: the binding signal was found to be 1.2 in assay [1] and 1.28 in assay [2].
For the sequence TTCTAA, the binding signal in assay [1] is 1.83; in assay [2], 1.19.
Take GCTAAG: the binding signal in assay [1] is 1.13; in assay [2] it was 0.958.

For the origin of these results see article PMC7862700.
